Like-named read-outs stand apart in the source and are kept apart here.
Tests used:
[1] = Experimental: The small amounts of hyperpolarized solution were added to the blood sample at 0, 3, 6, 7.25, and 9.17 min from arrival of the solution to the collection tube.
[2] = for time hyperpolarized signal observed: co-polarized nitrate 29 mM and nitrite 47 mM in D2O, 37-42° C., FIG. 4A
From the text: The dissolution process is detailed in the results section. […] Unless otherwise stated, the dissolved hyperpolarized solution was directly injected to a screw cup 10 mm NMR tube in a 5.8T NMR spectrometer via a PTFE line of about 2.4 m length with 3 s of He(g) chase. This line was wrapped with a heating tape (MRC, Holon, Israel) that enabled control over the temperature of the dissolution medium arriving to the NMR tube directly or to a collection tube in the fringe field of the spectrometer. ^15N-Nuclear Magnetic Resonance (NMR) spectra were continuously recorded immediately at the start of the dissolution process. […] In the experiments in body fluids and in experiments in which the hyperpolarized solution was first cooled to temperatures below room temperature, the dissolution media was first collected in a conical tube placed in the spectrometer's fringe field, and then was injected by syringe via a PEEK line to the NMR tube that was placed in the magnet.
For heating this hyperpolarized solution prior to arrival to the NMR tube, the PTFE line leading the hyperpolarized solution out of the spin polarization device was wrapped with a heating tape connected to a temperature controller (MRC, Holon, Israel). In this way, hyperpolarized solutions at temperatures higher than 26° C. could be obtained. For cooling the hyperpolarized solution, the heating tape was not turned on and the dissolution medium was mixed with 0 to 4 mL of D2O at 2° C. in a collection tube placed in ice-water bath in the fringe field of the magnet, prior to injection.
^15N-NMR spectroscopy was performed in a 5.8T NMR spectrometer (RS2D, Mundolsheim, France), using a 10 mm broad-band NMR probe. The chemical shift scale of the spectra presented herein was calibrated based on a separate measurement of a [^15N2]urea standard sample (4M in H2O:D2O 80:20), carried out prior to hyperpolarized ^15N acquisitions, calibrating the [^15N2]urea signal to −306 ppm (relative to nitromethane). For enhancement factor calculation, the spectra were collected with a high flip angle of […] and a repetition time of 2 s. For T1 calculation, the spectra were acquired with a low flip angle of […] and a longer repetition time of 5-10 s.
The temperature in the NMR tube was continuously monitored using an NMR compatible temperature probe (Osensa, Burnaby, BC, Canada).
Determination of the T1 of the hyperpolarized sites was performed by curve fitting of the signal decay to the following equation: S(t)=S0·e^−t/T^1·(cos θ)^t/TR, in which TR, the time between excitations, and θ, the nutation angle of excitation, are known. Curve fitting was performed using Matlab (Mathworks, Natick, Mass., USA).

| Structure (SMILES) | time signal observed in blood ([1]; injection 1 (0 min; solution 16.4° C.)) [min] | time signal observed in blood ([1]; injection 2 (3 min; solution 5.8° C.)) [min] | time signal observed in blood ([1]; injection 3 (6 min; solution 2.9° C.)) [min] | time signal observed in blood ([1]; injection 4 (7.25 min; solution 2.1° C.)) [min] | visibility of hyperpolarized signal in blood ([1]; multiple injections from a single dose stored in ice-water bath) | time signal observed in blood ([1]; previous single injection to blood (FIG. 4E)) [min] | time hyperpolarized state observed ([2]; D2O, 5.8 T, FIG. 3A) | time hyperpolarized signal observed [2] | time ^15N signal visible ([2]; physiological saline, 38° C., 5.8 T, pulse every 8 s) |
| --- | --- | --- | --- | --- | --- | --- | --- | --- | --- |
| O=[15N+]([O-])[O-].[Na+] [[^15N]nitrate, sodium [^15N]nitrate] | 2.9 | 2.2 | 1.0 | 0.6 | up to 9 min | 4 | about 10 min | more than 500 s | about 8 min |
| O=[15N][O-].[Na+] [[^15N]nitrite, sodium [^15N]nitrite] |  |  |  |  |  |  |  | 55 s |  |

— patent US11771779B2, “Non-metallic magnetic resonance contrast agent” (HADASIT MEDICAL RESEARCH SERVICES & DEVELOPMENT LIMITED, priority 2018, dated 2023)
